Experimental data: PubChem BioAssay AID652243 (Drosophila RNAi Screening Center, 2013)
Test: 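Knock-downs that decrease or increase androgen receptor reporter signal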 (primary screen). Cell system: Drosophila S2R+ cells. Reagents: long dsRNA against Drosophila genes. Timing: 72 h (48 h, then 24 h hormone). Conditions: synthetic androgen R1881 at 10 nM for 24 h. Detection: 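Firefly light from an androgen-responsive reporter and Renilla control light per well, raw and unnormalised, for each of two replicates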. Scale: firefly reporter light: higher = more light from androgen-responsive reporter; Renilla control light: higher = more constitutive control signal (cell number, transfection). Call rule: 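Across duplicate plates, a knock-down whose log firefly/Renilla ratio shifted a set fold down or up from the GFP/LacZ control mean was a hit; the downward cut appears as both 1.5 and 3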. Meaning of the calls: active = hit: reporter lowered or raised; inactive = no hit.
In all, the deposit lists about 24,000 reagents; this is a random part of those with a known target gene and a result. In the full data, 246 (1%) got an active call. 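Plates not normalised; calls are printed but the firefly/Renilla ratio behind them is not deposited; fold cut for lowering reported inconsistently.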 Raw values are not corrected between plates. Unmarked entries are inactive. Reagents against one gene are numbered here. Not given: the amount of reagent.

gene,dsRNA no.,"firefly reporter light, replicate 1","firefly reporter light, replicate 2","Renilla control light, replicate 1","Renilla control light, replicate 2"
toy,1,89809,60662,6.32e5,5.00e5
toy,2,4.39e5,6.75e5,6.78e5,7.45e5
CG11357,1,1.05e5,97089,1.35e6,1.39e6
S1P,1,2.86e5,2.10e5,2.88e6,2.35e6
Golgin97,1,1.12e6,1.09e6,2.28e6,2.52e6
CheA7a,1,2.62e5,3.00e5,2.26e6,2.58e6
Tif-IA,1,5.52e5,6.02e5,2.52e6,2.19e6
Tif-IA,2,1.96e5,2.14e5,1.43e6,1.46e6
CG2321,1,1.36e5,97518,8.18e5,5.22e5
ppl,1,52154,78331,3.37e5,5.45e5
ppl,2,4.57e5,4.15e5,5.20e5,8.40e5
CG10486,1,1.48e5,1.43e5,1.24e6,1.65e6
CG32081,1,2.11e5,2.13e5,1.83e6,1.71e6
Membrin,1,1.42e5,1.10e5,1.91e6,2.01e6
Vps35,1,9.68e5,2.00e5,1.41e6,6.00e5
Vps35,2,3.76e5,3.60e5,1.52e6,1.09e6
CG4702,1,87012,81610,7.20e5,6.69e5
nebu,1,7.12e5,6.92e5,1.85e6,2.44e6
nebu,2,2.48e5,2.34e5,2.45e6,1.75e6
Art2,1,98764,55821,6.03e5,5.57e5
TwdlS,1,1.47e5,1.24e5,1.51e6,1.61e6
l(2)k05819,1,1.10e6,1.15e6,3.03e6,2.58e6
shi,1,87763,1.06e5,6.42e5,6.67e5
shi,2,6.71e5,6.58e5,1.07e6,1.07e6

Laid out differently: 4 of the entries above.
| gene | dsRNA no. | firefly reporter light, replicate 1 | firefly reporter light, replicate 2 | Renilla control light, replicate 1 | Renilla control light, replicate 2 |
| --- | --- | --- | --- | --- | --- |
| CG32081 | 1 | 2.11e5 | 2.13e5 | 1.83e6 | 1.71e6 |
| Membrin | 1 | 1.42e5 | 1.10e5 | 1.91e6 | 2.01e6 |
| Vps35 | 1 | 9.68e5 | 2.00e5 | 1.41e6 | 6.00e5 |
| Vps35 | 2 | 3.76e5 | 3.60e5 | 1.52e6 | 1.09e6 |
